Reference: PubChem BioAssay AID504834 (National Center for Advancing Translational Sciences (NCATS), 2011)
The campaign covered roughly 320,000 compounds. About 22,000 (6.9%) were called active. Inconclusive means that the source gave no clear call. Such entries were picked first, then a sample of the others. Calls follow the shape of the dose curve; as a rule, active = well fitted inhibition curve with a large enough effect; inconclusive = small, poorly fitted or top-dose-only effect, or another doubt; inactive = no such curve, though single readings can be large or run the other way. Potencies of inconclusive entries are doubtful fits and often do not repeat.

Experiment: Primary qHTS for delayed death inhibitors of the malarial parasite plastid, 96 hour incubation
Conditions: P. falciparum luciferase reporter growth; series mostly up to 28.7 µM; activity change, negative = inhibition: at the top concentration
Method in brief: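 96 h incubation, 37 C, 5% CO2, of luciferase-reporter P. falciparum-infected RBCs (2% hematocrit, 0.05% parasitemia final) with test compounds; endpoint luminescence.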
% is scaled to controls: 0 for no effect and ±100 for the full control effect; potency is read from the fitted curve at half-maximal effect.

| Compound | Potency | activity change, negative = inhibition |
| --- | --- | --- |
| O=C(Cc1ccccc1)N1CCN(C2CCCC2)CC1 | inconclusive: 11.7 µM [inhibitor, partial curve] | – |
| CCCc1[nH]n(-c2ccc([N+](=O)[O-])cc2)c(=O)c1C=NCCc1c[nH]c2ccccc12 | inconclusive: 5.22 µM [inhibitor, partial curve] | – |
| CCC(Cc1ccccc1)NC(=O)Cn1cccc1C(=O)c1ccccc1 (stereo not drawn) | inconclusive: 5.22 µM [inhibitor, partial curve] | – |
| COc1ccccc1/C=C1\CCCC2=C1Nc1nnnn1C2c1ccccc1OC (stereo not drawn) | – | inactive: -19.6% |
| Cc1cc(NC(=O)CCC(=O)N(c2ccccc2)C(C(=O)NC2CCCCC2)c2cccs2)no1 (stereo not drawn) | active: 8.28 µM | – |
| FC(F)(F)c1ccc2c(c1)NCC1CCCN21 (stereo not drawn) | – | inactive: 108% |
| CCC(=O)Nc1cccc(Br)c1 | inconclusive: 18.5 µM [inhibitor, single point] | – |
| O=C(O)CSc1nnc(COc2cccc3cccnc23)n1-c1ccc(Cl)cc1 | – | inactive: 25.6% |
| CCOc1ccc(-c2c(C(=O)N/N=C(\C)c3ccccc3OC)nnn2-c2nonc2N)cc1 | inconclusive: 4.15 µM [inhibitor, partial curve, poor fit] | – |
| Cc1cccc(NC(=O)CCc2nnc3ccc(N4CCC(C)CC4)nn23)n1 | inconclusive: 20.8 µM [inhibitor, single point] | – |
| COc1ccc(S(=O)(=O)N2CCCN(S(=O)(=O)c3ccc(OC)cc3C)CC2)c(C)c1 | inconclusive: 13.1 µM [inhibitor, partial curve, poor fit] | – |
| COC(=O)c1ccc(OC(=O)c2cccnc2)cc1 | inconclusive: 11.7 µM [inhibitor, single point] | – |
| O=C(O)CCC(=O)Nc1nnc(C(F)(F)F)s1 | – | inactive: 17.6% |
| CCn1cc(/C=C/C(=O)Nc2ccn(Cc3c(F)c(F)c(F)c(F)c3F)n2)cn1 | inconclusive: 9.28 µM [inhibitor, partial curve] | – |
| CCN1CCN(C(c2cc(OC)c(OC)c(OC)c2)c2nnnn2C(C)C)CC1 (stereo not drawn) | inconclusive: 13.1 µM [inhibitor, partial curve, poor fit] | – |
| Cc1c(-c2cccc(Cl)c2)nc2ccccc2c1C(=O)OCC(=O)Nc1ccc2c(c1)OCO2 | active: 2.08 µM | – |
| Cc1cc(=O)n2nc(N3CCCC(C(=O)Nc4ccc(C)c(C)c4)C3)sc2n1 (stereo not drawn) | inconclusive: 18.5 µM [inhibitor, single point] | – |
| CN(CC1CCCO1)S(=O)(=O)c1ccc(C(=O)Nc2ccc3c(c2)OCO3)cc1 (stereo not drawn) | inconclusive: 5.22 µM [inhibitor, partial curve, poor fit] | – |

2 records drawn at random from those above, as already listed:

| Compound | Potency | activity change, negative = inhibition |
| --- | --- | --- |
| O=C(Cc1ccccc1)N1CCN(C2CCCC2)CC1 | inconclusive: 11.7 µM [inhibitor, partial curve] | – |
| CCN1CCN(C(c2cc(OC)c(OC)c(OC)c2)c2nnnn2C(C)C)CC1 (stereo not drawn) | inconclusive: 13.1 µM [inhibitor, partial curve, poor fit] | – |
